These are yes or no findings as the source states them, for the method shown. Binding seen in cells or lysates may run through a third protein. Some results given as binding are weak or reduced against the parent protein; the word gives no strength.
Tests used:
[1] = target: v-ATPase d1 subunit (V0 subcomplex), rat heart (rat (endogenous in heart)) (UniProt Q5M7T6); experiment: co-IP; endogenous proteins in rat heart lysates; IP against V1-B2, V0-d1 or mTOR, western blot for mTOR, V0-a2, V1-B2, V0-d1; rats on LFD, HFD or HFD/H-KLR (HFD decreased, H-KLR restored the co-IP)
[2] = target: v-ATPase B2 subunit (subunit of the cytoplasmic V1 subcomplex), HL-1 cells (mouse (endogenous in HL-1)) (UniProt P62814); experiment: co-IP; endogenous proteins in HL-1 cell lysates; IP with antibodies against V0-d1, V1-B2 or mTORC1, western blot for mTORC1, V0-a2, V0-d1, V1-B2; cells cultured 24 h in Ctrl, HP, HP/4*KLR or HP/4*KLR/Rap medium (HP decreased, 4*KLR preserved the co-IP)

The chains behind the UniProt entries cited, without tags or fusion partners.
UniProt Q5M7T6: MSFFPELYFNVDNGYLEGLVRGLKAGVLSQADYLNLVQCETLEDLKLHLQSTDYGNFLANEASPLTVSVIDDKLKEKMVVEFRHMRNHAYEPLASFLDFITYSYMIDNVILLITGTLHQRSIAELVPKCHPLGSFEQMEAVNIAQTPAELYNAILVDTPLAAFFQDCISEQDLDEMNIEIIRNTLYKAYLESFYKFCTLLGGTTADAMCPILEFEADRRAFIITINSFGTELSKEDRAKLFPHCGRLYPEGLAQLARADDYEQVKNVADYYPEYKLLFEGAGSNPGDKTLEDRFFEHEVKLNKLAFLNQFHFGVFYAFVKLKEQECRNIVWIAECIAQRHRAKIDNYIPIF
UniProt P62814: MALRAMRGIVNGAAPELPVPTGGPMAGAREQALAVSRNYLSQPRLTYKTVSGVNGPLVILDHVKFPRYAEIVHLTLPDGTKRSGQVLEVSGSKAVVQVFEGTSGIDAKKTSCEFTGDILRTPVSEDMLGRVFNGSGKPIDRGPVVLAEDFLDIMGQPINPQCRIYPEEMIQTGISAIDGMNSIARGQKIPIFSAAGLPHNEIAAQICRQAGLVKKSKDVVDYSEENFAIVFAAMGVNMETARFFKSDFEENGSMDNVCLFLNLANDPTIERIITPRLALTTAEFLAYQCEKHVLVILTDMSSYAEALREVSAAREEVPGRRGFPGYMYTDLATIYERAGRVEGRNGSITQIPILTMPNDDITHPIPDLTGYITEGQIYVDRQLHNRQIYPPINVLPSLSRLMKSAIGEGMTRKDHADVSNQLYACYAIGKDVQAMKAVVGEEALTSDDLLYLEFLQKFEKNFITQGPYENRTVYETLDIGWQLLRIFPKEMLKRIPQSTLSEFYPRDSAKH
UniProt P62815: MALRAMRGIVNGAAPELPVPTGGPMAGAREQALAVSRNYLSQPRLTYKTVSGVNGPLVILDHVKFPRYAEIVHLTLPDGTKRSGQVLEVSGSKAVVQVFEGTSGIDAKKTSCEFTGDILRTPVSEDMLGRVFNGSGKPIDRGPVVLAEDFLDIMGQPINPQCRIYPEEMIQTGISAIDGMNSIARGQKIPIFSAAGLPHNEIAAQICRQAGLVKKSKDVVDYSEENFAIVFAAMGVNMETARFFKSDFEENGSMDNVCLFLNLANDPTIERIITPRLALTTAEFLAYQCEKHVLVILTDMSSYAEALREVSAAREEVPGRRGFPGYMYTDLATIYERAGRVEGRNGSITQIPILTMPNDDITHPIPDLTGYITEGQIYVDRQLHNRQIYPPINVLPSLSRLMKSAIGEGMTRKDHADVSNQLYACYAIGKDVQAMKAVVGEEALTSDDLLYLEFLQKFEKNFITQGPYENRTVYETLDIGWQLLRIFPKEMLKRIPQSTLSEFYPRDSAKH
UniProt P15920: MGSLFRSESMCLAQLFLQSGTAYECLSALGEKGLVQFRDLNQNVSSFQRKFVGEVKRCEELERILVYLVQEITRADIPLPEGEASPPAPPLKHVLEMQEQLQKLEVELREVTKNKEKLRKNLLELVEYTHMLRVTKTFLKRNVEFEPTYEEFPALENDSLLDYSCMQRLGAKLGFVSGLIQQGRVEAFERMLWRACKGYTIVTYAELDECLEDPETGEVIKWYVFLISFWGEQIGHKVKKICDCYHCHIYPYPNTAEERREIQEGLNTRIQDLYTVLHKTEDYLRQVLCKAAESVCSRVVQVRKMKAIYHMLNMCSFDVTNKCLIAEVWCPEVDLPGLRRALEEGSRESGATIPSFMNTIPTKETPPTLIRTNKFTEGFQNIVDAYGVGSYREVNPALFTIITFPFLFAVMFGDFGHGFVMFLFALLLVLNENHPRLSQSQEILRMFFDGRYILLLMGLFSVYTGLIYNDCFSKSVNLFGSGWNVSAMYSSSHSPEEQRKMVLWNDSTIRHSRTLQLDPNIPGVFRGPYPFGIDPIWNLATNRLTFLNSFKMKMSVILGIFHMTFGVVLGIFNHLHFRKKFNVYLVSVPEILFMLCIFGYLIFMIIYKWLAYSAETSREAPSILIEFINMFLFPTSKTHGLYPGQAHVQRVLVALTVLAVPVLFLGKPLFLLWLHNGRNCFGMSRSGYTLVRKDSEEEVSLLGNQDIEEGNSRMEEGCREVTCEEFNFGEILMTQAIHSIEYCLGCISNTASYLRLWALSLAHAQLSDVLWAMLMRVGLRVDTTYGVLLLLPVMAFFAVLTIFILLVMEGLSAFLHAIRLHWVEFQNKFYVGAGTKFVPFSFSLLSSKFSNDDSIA

binding [1]	binding [2]	Substance
binds	–	v-ATPase B2 subunit (V1 subcomplex), rat heart (from UniProt P62815 1-511)
–	binds	v-ATPase a2 subunit (subunit of the membrane-bound V0 subcomplex), HL-1 cells (from UniProt P15920 1-856)

From PMC8350375
